Among the data in PubChem BioAssay AID256 (DTP/NCI, 2004) are survivor count and T/C values, retold here.

SMILES strings stand for the structures. The list does not hold the whole screen: it gathers tests that were run many times, whatever their T/C, doses with no T/C, and many T/C values between a quarter and a half above the control. Further doses and runs are listed elsewhere. T/C gives the treated animals as a percentage of the vehicle group. Some entries give survivors of the animals treated and no T/C: the source holds a T/C of zero for them, seemingly a mark for toxic or unscored doses. Some doses without a T/C left all or most animals alive at the check, yet need not have been tolerated: the source hardly ever lists a survival T/C far under the control, and the zero likely stands for such cases as well. Counts of survivors are from the toxicity check (mostly the fifth day) where no day follows; animals may have died later. Schedule codes are those of the source, taken here to give the interval after Q, in days (D) or hours (H), and the number of doses after X. For survival time, the PubChem record calls one and a half times the control and up active, and a quarter to a half above the control has no call in these data; cut-offs in other NCI protocols can differ. Some T/C values carry the count of animals alive at the toxicity check (mostly the fifth day); without a count, all were alive then. Some entries were tested several times; the results are listed from low to high. Signs of the kind (2×) count equal records among those shown.

For the assay, the system named is CD2F1 mice, L1210 leukemia ip, survival T/C. Briefly: NCI In Vivo Anticancer Drug Screen. Data for tumor model L1210 Leukemia (intraperitoneal) in CD2F1 (CDF1) mice. To be noted: higher T/C = longer survival. The gist of the method:
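Activity against a transplanted murine tumor was judged by comparing the compound group with a vehicle group. The outcome in the treated animals was divided by that in the controls.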

Setting [1] is: T/C endpoint: median survival time, dose: 1.0 mg/kg/injection, schedule: Q01DX001 (ip), vehicle: saline.

With `Oc1c(C(c2ccccc2)N2CCOCC2)ccc2ccccc12` (stereo unspecified), the survivor count (T/C endpoint: mean survival time, dose: 400.0 mg/kg/injection, schedule: Q04DX003 (ip), vehicle: saline with Tween-80) is 3 of 6.
As for `[Cl][Pt+2][Cl].[NH-]c1ccccc1F.[NH-]c1ccccc1F`, the survivor count (T/C endpoint: mean survival time, dose: 250.0 mg/kg/injection, schedule: Q04DX003 (ip), vehicle: saline with Tween-80) is reported as 3 of 3.
As to `CCN(N=O)C(=O)N(Cc1ccccc1)Cc1ccccc1`, where the note is “T/C endpoint: mean survival time, dose: 400.0 mg/kg/injection, schedule: Q01DX009 (ip), vehicle: other”, the survivor count is 2 of 5.
Take `CCCCNC(C)(C)C(SS)c1ccc(Cl)cc1` (stereo unspecified): the survivor count (T/C endpoint: mean survival time, dose: 400.0 mg/kg/injection, schedule: Q04DX003 (ip), vehicle: saline) is given as 1 of 6.
For `Cc1c2oc3c(C)ccc(C(=O)N[C@@H]4C(=O)N[C@H](C(C)C)C(=O)N5CCC[C@H]5C(=O)N(C)CC(=O)N(C)[C@@H](C(C)C)C(=O)O[C@H]4C)c3nc-2c(C(=O)N[C@@H]2C(=O)N[C@H](C(C)C)C(=O)N3CCC[C@H]3C(=O)N(C)CC(=O)N(C)[C@@H](C(C)C)C(=O)O[C@H]2C)c(N)c1=O`, the T/C reads like this: (T/C endpoint: mean survival time, dose: 0.02 mg/kg/injection, schedule: Q01DX009 (ip), vehicle: saline) 140 % of control; (T/C endpoint: mean survival time, dose: 0.04 mg/kg/injection, schedule: Q01DX009 (ip), vehicle: saline) 140 % of control; (T/C endpoint: mean survival time, dose: 0.05 mg/kg/injection, schedule: Q01DX007 (ip), vehicle: saline) 144 % of control; (T/C endpoint: mean survival time, dose: 0.05 mg/kg/injection, schedule: Q01DX009 (ip), vehicle: saline) 134 % of control; (T/C endpoint: mean survival time, dose: 0.1 mg/kg/injection, schedule: Q01DX007 (ip), vehicle: saline) 134 % of control; (T/C endpoint: mean survival time, dose: 0.1 mg/kg/injection, schedule: Q01DX009 (ip), vehicle: saline) 138 % of control. Moreover, the T/C is 133 % of control (T/C endpoint: mean survival time, dose: 0.1 mg/kg/injection, schedule: Q04DX003 (ip), vehicle: other); 125 % of control [5 of 6 alive] (T/C endpoint: mean survival time, dose: 0.2 mg/kg/injection, schedule: Q03DX003 (ip), vehicle: other); 133 % of control (T/C endpoint: mean survival time, dose: 0.4 mg/kg/injection, schedule: Q04DX003 (ip), vehicle: other); 140 % of control (T/C endpoint: mean survival time, dose: 0.6 mg/kg/injection, schedule: Q01DX001 (ip), vehicle: saline); 137 % of control (T/C endpoint: mean survival time, dose: 50.0 micrograms/kg/injection, schedule: Q01DX009 (ip), vehicle: water, evaluated on day 30); 131 % of control (T/C endpoint: mean survival time, dose: 50.0 micrograms/kg/injection, schedule: Q01DX009 (ip), vehicle: water, evaluated on day 35). The T/C runs as follows: (T/C endpoint: mean survival time, dose: 100.0 micrograms/kg/injection, schedule: Q01DX009 (ip), vehicle: saline + alcohol) 134 % of control; (T/C endpoint: mean survival time, dose: 200.0 micrograms/kg/injection, schedule: Q01DX009 (ip), vehicle: saline + alcohol) 126 % of control; (T/C endpoint: median survival time, dose: 0.02 mg/kg/injection, schedule: Q01DX009 (ip), vehicle: water, evaluated on day 5) 125 and 131 % of control; (T/C endpoint: median survival time, dose: 0.02 mg/kg/injection, schedule: Q01DX009 (ip), vehicle: water, evaluated on day 18) 131 % of control; (T/C endpoint: median survival time, dose: 0.02 mg/kg/injection, schedule: Q01DX009 (ip), vehicle: water, evaluated on day 31) 125 % of control; (T/C endpoint: median survival time, dose: 0.03 mg/kg/injection, schedule: Q01DX009 (ip), vehicle: water, evaluated on day 5) 111, 123, 126 (2×), 135, 136 % of control. Besides, the T/C by setting is: (T/C endpoint: median survival time, dose: 0.03 mg/kg/injection, schedule: Q01DX009 (ip), vehicle: water, evaluated on day 18) 123 % of control; (T/C endpoint: median survival time, dose: 0.03 mg/kg/injection, schedule: Q01DX009 (ip), vehicle: water, evaluated on day 30) 111 [7 of 8 alive], 126 (2×), 136 % of control; (T/C endpoint: median survival time, dose: 0.03 mg/kg/injection, schedule: Q01DX009 (ip), vehicle: water, evaluated on day 31) 135 % of control; (T/C endpoint: median survival time, dose: 0.04 mg/kg/injection, schedule: Q01DX009 (ip), vehicle: water, evaluated on day 5) 76, 118, 123, 142, 146 % of control (2×); (T/C endpoint: median survival time, dose: 0.04 mg/kg/injection, schedule: Q01DX009 (ip), vehicle: water, evaluated on day 18) 146 % of control; (T/C endpoint: median survival time, dose: 0.04 mg/kg/injection, schedule: Q01DX009 (ip), vehicle: water, evaluated on day 30) 123, 142, 146 % of control. Besides, the T/C is 118 % of control (T/C endpoint: median survival time, dose: 0.04 mg/kg/injection, schedule: Q01DX009 (ip), vehicle: water, evaluated on day 31); 67, 109, 129, 146, 147, 149 % of control (T/C endpoint: median survival time, dose: 0.05 mg/kg/injection, schedule: Q01DX009 (ip), vehicle: water, evaluated on day 5); 149 % of control (T/C endpoint: median survival time, dose: 0.05 mg/kg/injection, schedule: Q01DX009 (ip), vehicle: water, evaluated on day 18); 109, 129, 147 % of control (T/C endpoint: median survival time, dose: 0.05 mg/kg/injection, schedule: Q01DX009 (ip), vehicle: water, evaluated on day 30); 146 % of control (T/C endpoint: median survival time, dose: 0.05 mg/kg/injection, schedule: Q01DX009 (ip), vehicle: water, evaluated on day 31); 83, 124, 134, 137, 147, 149 % of control (T/C endpoint: median survival time, dose: 0.06 mg/kg/injection, schedule: Q01DX009 (ip), vehicle: water, evaluated on day 5). Also, the T/C is, setting by setting: (T/C endpoint: median survival time, dose: 0.06 mg/kg/injection, schedule: Q01DX009 (ip), vehicle: water, evaluated on day 18) 149 % of control; (T/C endpoint: median survival time, dose: 0.06 mg/kg/injection, schedule: Q01DX009 (ip), vehicle: water, evaluated on day 30) 134, 137, 147 % of control; (T/C endpoint: median survival time, dose: 0.06 mg/kg/injection, schedule: Q01DX009 (ip), vehicle: water, evaluated on day 31) 124 % of control; (T/C endpoint: median survival time, dose: 0.12 mg/kg/injection, schedule: Q04DX003 (ip), vehicle: saline) 135 % of control; (T/C endpoint: median survival time, dose: 0.2 mg/kg/injection, schedule: Q04DX003 (ip), vehicle: saline) 132 % of control; (T/C endpoint: median survival time, dose: 0.25 mg/kg/injection, schedule: Q01DX001 (ip), vehicle: saline) 130 % of control [8 of 9 alive]. Moreover, the T/C runs as follows: (T/C endpoint: median survival time, dose: 0.45 mg/kg/injection, schedule: Q01DX001 (ip), vehicle: saline) 130 % of control; (T/C endpoint: median survival time, dose: 0.5 mg/kg/injection, schedule: Q01DX001 (ip), vehicle: saline) 131 and 142 % of control; (T/C endpoint: median survival time, dose: 0.6 mg/kg/injection, schedule: Q01DX001 (ip), vehicle: saline) 129 % of control; (T/C endpoint: median survival time, dose: 0.75 mg/kg/injection, schedule: Q01DX001 (ip), vehicle: saline) 137 % of control; under setting [1], 122, 151, 152 % of control; (T/C endpoint: median survival time, dose: 50.0 micrograms/kg/injection, schedule: Q01DX009 (ip), vehicle: saline + alcohol) 126 % of control. Moreover, the T/C (T/C endpoint: median survival time, dose: 100.0 micrograms/kg/injection, schedule: Q01DX009 (ip), vehicle: saline + alcohol) is 137 % of control. Further, the survivor count is, setting by setting: (T/C endpoint: mean survival time, dose: 0.2 mg/kg/injection, schedule: Q01DX007 (ip), vehicle: other) 6 of 6; (T/C endpoint: mean survival time, dose: 0.2 mg/kg/injection, schedule: Q01DX007 (ip), vehicle: saline) 6 of 6; (T/C endpoint: mean survival time, dose: 0.4 mg/kg/injection, schedule: Q01DX007 (ip), vehicle: other) 1 of 6; (T/C endpoint: mean survival time, dose: 0.4 mg/kg/injection, schedule: Q01DX009 (ip), vehicle: other) 0 of 6; (T/C endpoint: mean survival time, dose: 100.0 micrograms/kg/injection, schedule: Q01DX009 (ip), vehicle: water) 5 of 6; (T/C endpoint: mean survival time, dose: 200.0 micrograms/kg/injection, schedule: Q01DX009 (ip), vehicle: water) 4 of 6. The survivor count is recorded as 8 of 8 (T/C endpoint: median survival time, dose: 0.04 mg/kg/injection, schedule: Q01DX009 (ip), vehicle: water); 7 of 8 (T/C endpoint: median survival time, dose: 0.05 mg/kg/injection, schedule: Q01DX009 (ip), vehicle: water); 8 of 8 (T/C endpoint: median survival time, dose: 0.06 mg/kg/injection, schedule: Q01DX009 (ip), vehicle: water); 2 of 6 under setting [1].
Regarding `CC1(C)N=C(N)N=C(N)N1c1cccc(C#N)c1`, the T/C (T/C endpoint: mean survival time, dose: 56.3 mg/kg/injection, schedule: Q01DX009 (ip), vehicle: saline) was 135 % of control. The survivor count (T/C endpoint: mean survival time, dose: 300.0 mg/kg/injection, schedule: Q01DX001 (ip), vehicle: saline) was 0 of 6.
In the case of `CCC(=O)NC1=C(Cl)C(=O)c2ccccc2C1=O`, the survivor count (T/C endpoint: mean survival time, dose: 40.0 mg/kg/injection, schedule: Q01DX001 (ip), vehicle: saline) is on record as 0 of 6 and the survivor count (T/C endpoint: mean survival time, dose: 80.0 mg/kg/injection, schedule: Q01DX001 (ip), vehicle: saline) is on record as 0 of 6.
